Reference: the RNAGym collection of RNA variant scans (doi:10.1126/science.aae0568)
Variants at the floor of the assay are shown more often than the library holds them.

B1: tRNA (parent)
chain: GUUCCGUUGGCGUAAUGGUAACGCGUCUCCCUCCUAAGGAGAAGACUGCGGGUUCGAGUCCCGUACGGAACG

Variants of: B1
Assay: yeast fitness relative to wild type (ratio to wild type); higher = fitter; tRNA-Arg(CCU), competitive growth, 37 C, YPD
Outline: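 Changes in genotype frequencies gave Darwinian fitness relative to wild type. Frequencies were read by 100-nucleotide paired-end sequencing of gene amplicons before and after pooled Saccharomyces cerevisiae strains, carrying tRNA-Arg(CCU) gene variants at the native locus, were competed in YPD at 37°C for 24 hours in six replicates. A genotype was kept only with ≥ 100 starting reads, and estimates < 0.5 were set to 0.5.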

Row | Variant | yeast fitness
1 | GUUGCGUUGGCGUAAUCGUCACGCGUCACCCUCCUAAGGAGAAGAAUGCGGGUUCGAGUCCCGUACGGAACG | ≤ 0.5
2 | GUUCUGUUGGCGUAAUGGUAACGCGUCUCCCUCCUAAGGAGAAGACUGCGGGUUCGAGUCCCGUAGGGAACG | 0.779
3 | GUUCCGUUGGCGUAAUGGUAACGCGUGUCUCUCCUAAGCUGAACACAACGGGUUCGAGUCCCGUCCGGAACG | ≤ 0.5
4 | GUUCCGUUGGCGUAAUGGUAACGCGUCUCCCUCUUAAGGAGAGGACUGCGGGUCCGAGUCCCGUAUGGAACG | ≤ 0.5
5 | GUUCCGUUGGCGUAGUGAUAACGCGUCUCCCUCCUAAGGAGAAGACUGCGGGUUUAAGUCCCGUACGGAACG | ≤ 0.5
6 | GUUCCGUUGGCGUAAUGGUAACGCGUCUCCUUCCUACGGAGAAGCCUGCGGGUUCCAGUCCCGUACGGAACG | ≤ 0.5
7 | GUUCCGUUAGUGUAAUGGUAACGCGUCUCCCUCCUCAGGAGAAGACUGGGGGGUCGAGUCCCGUACGGAACG | ≤ 0.5
8 | GUUACGUUGGCGUAAUGGUAACGCGUCUGCCUCGUAAGGAGAAGACUGCGGGUUCGAGUGCCGUACGGAACG | ≤ 0.5
9 | GUUCCGCCGGCGUAAUGGUAGCGCGUCUCCAUCCUAAGGAGAAGACUGCGGGUUCGAGUCCCGUACGGAACG | ≤ 0.5
10 | GUUCCGUUGGCGUAAUGGUAGCCCGUUUCCCUCCUAAGGAGAAGACUGCGCGUUAGAGUCCCGUAUGGAACG | ≤ 0.5
11 | GCUCCGUUGGCGUAAUGGGAACGCGUCUCCCUCCUAAGGAGAAGACUGCGGGUUCGAGUCCCGUACGGCACG | 0.543
12 | GUCCCAUUGGCGUAAUGCUAACGCGUCUCUUUCCUAAGGAGAAGACUACGGGUUGGAGUCCCGUACGGAACG | ≤ 0.5
13 | GUUCCAUUGGCGUAAUGGUAACGCGUCUCCCUCCUAAGGAGAAGACUGUGGGUUCGAGUCCCGUACGGAACG | 0.959
14 | GUUCUGUUGGCGUAAUGGCAACGGGUCUCCCUCCUAAGGAGAAGACUGCGGGUUCGAGUCCCGUACGGAACG | ≤ 0.5
15 | GUUCCGGUGGCGUAAUGGUAACGCGUCUCCCUCCUAAGGAGAAGCCUGCGCGCUCGAGUCCCGUACGGAACG | ≤ 0.5
16 | GUUCCGUAGGCGUAAAGGCAACGCGUCUCCCUCCUAAGGAGAAGACUGCGGGUUCGCGUCCCGUACGGAACG | ≤ 0.5
17 | GUUCCGUUGGCGUCAUGGUAACGCGUCUCCCUCCUAAGGAGAAGACUCGGGGUUCGAGUCCCGUACGGAACG | ≤ 0.5
18 | GUUCCGUUGGUGUAAUGGUAACGCGUGUCCUUCGUAGGGAGAAGACUGCGGGUUCGAGUCCCGUACGGAACG | ≤ 0.5
19 | GUUCCGUUGGUGUAAUGGUAACGCGUCUCCAUCCUAAGGAGAAGACUGCGAGUUCGAGUCCCGUACGGAACG | ≤ 0.5
20 | GUUCCGUAGGCGUGAUGGUAACGCGUCUCCAUCCUAAGAAGAAGACUGCGGGUUCGGGUCCCGUACGGAACG | ≤ 0.5
21 | GUUCCGUUGGUGUAAUGGUAACGCGUAUCCCUCCUAAGGAGAAGACUGCGGGUGCGAGUCCCGUACGGAACG | ≤ 0.5
22 | GUUCCGUUGGCGUAAUGGUAACGCGUCUCGCUCCUAAGGAGAAGACGGUGGGUUCGAGUCCCGUGCGGAACG | ≤ 0.5
23 | GUUCCGUUGGCGUAAUGGUAACGCGUCUCCCUCCUAAGGAGAGGACUGCGGGUUCCAGUUCCGUACGGAACG | ≤ 0.5
24 | GUUCCGUUGGCGUAAUGAUAACGCGUCUCCCUCCAAAGGAGAAGACUGCGGGUUCGUGUCUCGUACGGAACG | ≤ 0.5
25 | GUUCCGUUGGCGUAAUGGUAACGCGUCUCCCUCGUAGGGAGAAGACUGCGCGUUCGAGUCCCGUACGGAACG | ≤ 0.5

Row | Variant | yeast fitness
26 | GUACCGUUGGCGUUAUGGUAACGCGUCUCCCUCCUAAGGAGAAGACUGCGGGUUCGAGUCACGUACGGAACG | ≤ 0.5
27 | GUUCCGUAGGCGUAAUGGCACCGCGUCUCCCUCCUAAGCAGGAGACUGCGGGUUCGAGUCCCGUACGGUACG | ≤ 0.5
28 | GUUCCGUUGGCGUAAUGGUAACGCGACUACGUCCUAAGGAGAAGACUGCGGGUUCGAGUCCCGUACGGAACG | ≤ 0.5
29 | GUUCCGUUGGCGUAAUGGUAACGCGUCUCCCACCUAAGGAGGAGAUUGCGGGUUCGAGUCCCGUACGGAACG | ≤ 0.5
30 | GUUCCGUUGGCGUAAUGGUAACGCCUCUCCCUCCUAAGGAGAAGACUGCGGGUUCGAGUCCCGUAAGGAACG | 0.677
31 | GUUCCGUUGGCGUAAUGGUUACGCGUCUCCCUCCUAAGGAGAAGACUGCGGGUUCGAGUCUCGUUCGGAACG | ≤ 0.5
32 | GUUCCGUUGGCGUAAUGGCCUCGCGUCUUCCUCCUAAGGCGAAGACUGGGGGUUCGAGUCCCAUACGGAACG | ≤ 0.5
33 | GUUCCGUUGGCGUAAUGGUAACGCGUCUGCCUCCUAACGAGAAGACUGUGGGUUCGAGUCCCAUUCGGAACG | ≤ 0.5
34 | GUUCCGUUGGCGUAAUGGUAGCGCGUCUCCCUCCUAAGGAGAAGACCGUGGGUUCGAGUCCCGUACGGAACG | 0.773
35 | GUUCCGUUGGCGUAACGGUAUCGCGCCUCCCUCCUAAGGAGAUGACUGCGGGUUCGAGUCGCGUACGGAACG | ≤ 0.5
36 | GUUCCGUUGGCAUAAUGGUAACGCGUCUCCCUCCUAAGGAGCAGACGGUGGGUUCGAGUCCCGUACGGAACG | ≤ 0.5
37 | GUUCCGUUGGCAUAAUCGUAACGCGUCUCCCUCCUAAGGAGAAGACUGCGGGUUCGAGUCCCGUUCGGAACG | ≤ 0.5
38 | GUGCCGUUGGCGUAGUGGUAACGGGUCUCCCUCCUAAGGAGAAGACUGCGGGUUCGAGUCCCGUGCGAAACG | ≤ 0.5
39 | GUUCCAUUGGCGUAGUGGUAACGCGUCUCCCGCCUAAGGAGAAGCCUGCGGGUUCGAGUCCCGUACGAAACG | ≤ 0.5
40 | GUUCCGUUGGCGUAAUGGUAGCGCGUCUUCCUCCUUAGGAGAUGACUGCGGGUUCGAGUCCCGUACGGAACG | ≤ 0.5
41 | GUUCCGUUGGCGUAAUGAUAACGCGUCUCCCUCCUAAGGAGAUGACUGCGGGUUCGAGUCCCGUACGGAACG | 0.637
42 | GUCCCGUUGGCGUAAUGGUAACGCGUCUCCCUCUUAAGGAAAAGACUGCGGGUUCGAGUCCCGUACGGAACG | ≤ 0.5
43 | GUUCCGUUGGCGUAAUGGUAUCGCGUCUCCCUCGUAAGGAGAAGACUGCGGGUUCGAGUCCCGUACGGUACG | ≤ 0.5
44 | GUUCCGUUGGUGUAUUGGUAAUGCGUCUCCCUCCUAAGGAGAAGACUGCGGGUUCGAGUCCCGUACAGAACG | ≤ 0.5
45 | GUACCGUUGGCGUAAUGGUAAAGCGUCUCCCUGCAAAGGAGAAGACUGCGGGUUUGAGUCCCGUACGGAACG | ≤ 0.5
46 | GUUUCGUUGGUGUAAUGGUAAGGCGUCUCCCUCCUAAGGAGAAGACUGCGGGUUCGAGUCACGUACGGAACG | ≤ 0.5
47 | GAUCCGUUGGCGUAAUGGUAACGCGUCUCCUUCCUAAGGAGAAGUCUGCGGGUUCGAGUCCCGUACGGAACG | ≤ 0.5
48 | GUUCCGUUGGCGAAAUGGUAAUGGGUCUCCCUCCUAAGGAGAAGACUGUGGGUUGGAGUCCCGUACCGAGCG | ≤ 0.5
49 | GUUCCGUAGGCGUAAUGGUAACGCGUCUCCCUCCUAAGGAGAGGACUGCGGGCUUGAGUCCCGUACGGAACG | ≤ 0.5
50 | GUUCCGUUGGCGUAAUGGUAACGCGUCUCCCUCCCAAGGAGCAGACUGCGGGUUCGAGUCCCGUACGUAACG | ≤ 0.5

Row | Variant | yeast fitness
51 | GUUCCGUUGGCGUAAUGGUAACGCGUCUGCCUUCUGAGGAGAAGACUGCGGGUUCGAGUCUCGUACGGCACG | ≤ 0.5
52 | GUUCCGUUGGCGUAAUGGUAACGCGUCUCCAUCCUAAGGAGAAGCCUGCGGGUUCGAGUCCCGUACCAAACG | ≤ 0.5
53 | GUACCGUUGGCGUAAUGGUAACGGGUCUCCCUCCUAAGGAGAAGACUGCGGGUUCGAGUCUCGUACGGAACG | ≤ 0.5
54 | GUUCCGUUGGCGUAAUGGUAACGCGUCGCCCUCCUGAGGCAAAGUCUGCGGGUUCGAGUCCAGUACGGAACG | ≤ 0.5
55 | GUUCCGUUGGCGUAAUGGUAACGCGUCUCCCUCCUAAGGAGAAGACUACGGGUUCGAGUCCUGUACGGAACG | 1.01
56 | GUUCUGUUGGCGUAAUGGUAACGCGUCUCCGUGUUAAGGAGAAGACUGUGGGUUCGAGUCCCGUACGAAACG | 0.543
57 | GUUCCGUUGGCGUUAUAGUAAUGCGUCUCCCUCCUAAGGAGAAGACUGCGGGUUCGAGUCCCGUACGGCUCG | ≤ 0.5
58 | GUUCCGUUGGCGUAAUGGUAACGCGUCUCCCUGCUAAGGAGAAGGCUGCGGGUUGCAGUCCCGUACGGAACG | ≤ 0.5
59 | GUUCCGUUGGUGUAAUGGUAGCGCGUCUCCCUCCUAAGGAGAAGACUGCGGGUUCGAGUCCCGUACGGACCG | 0.818
60 | GUUCCGUUGGCGUAACGAUAACGCGUCUCCCUCCCAAGGAGAAGACCGCCGGUUCGAGUCCCGUACGGAACG | ≤ 0.5
61 | GUUCCGUUGGCGUAAUGGUAACGCGUCUCCCUGCUAAGGAGAAAACUGCGGGUUCAAGUCCCGUACGGAACG | ≤ 0.5
62 | GUUCCAUUGCCGUAAUGGUAACGCGUCUCCCUCUUAAGGCGAAGACUGCGGGUUCGAGUCCCGUACGGAACG | ≤ 0.5
63 | GUCCCGUUGGCGUAAUGGUAACGCGUCUCCCUCCUAAGGAGAAGACUGCCGGUUCGAGUCCCGAACGGAACG | ≤ 0.5
64 | GUUCCAUUCGCGUAAUGGUAACGCGUCUCCUUCCUAAGGAGAAGACUGCGGGUUCGAGUCCCGUACGGAACG | ≤ 0.5
65 | GUUCCGUUGGCGUAAUGGUAAAGGGUCUCCCUCCUGAGCAGAAGACUGCGGGUUUGAGUCCCGUACGGAACG | ≤ 0.5
66 | GUUCCCAUGGCGUAAUGGUAACGCGUUUCCCUCCUAAGGAGAAGACUGUGGGUUCGAGUCCCGUACGGACCG | ≤ 0.5
67 | GUUCCGCUGGCGUAAUGGUAACGCGUCUCUCUCCUAAGGAGAAGACUGCGGGUUCGAGUCCCGUACAGAACG | ≤ 0.5
68 | GUUACGUUGGCGUAAUGGUUACGCGUCUCCCUCGUAAGGAGAAGACUGCGGGUUCGAGUCCCGUACGGAACG | ≤ 0.5
69 | GUUAUGUUGGCGUAAUGGUAACGCGUCUGCCUUCUAAGGAGAAGACUGCGGGUUCGAGGCCCGUACGGCACG | 0.533
70 | GUUCCGUUGGCGUAAUUGUAACGCCUCUCCCUCCUAAGGAGGAGACUGCGGGUACGAGUCCCGUACGGAACG | ≤ 0.5
71 | GUUCCGUUGGCGUAAUGGUAACGCGUCUCCCUCCUGAGGAGACGACUGCGGGUUCGAGUCCCUUACGGAACG | ≤ 0.5
72 | GUUCCGUUGGCCUAAUGGUAACGCGUCUCCCUCCUAAGGAGAAGAAUGCGGGUUCGAGUCCCGUACGGAGCG | ≤ 0.5
73 | GUUCCGUUGGAGUAAUGGUAACGCGUUUCCCUCCUAAGGAGAAUACUGCGGGUUCGAGUCCCGUACGGAACG | ≤ 0.5
74 | GUUCCGUUGACGUAAUGGUAACGCGUCUCCCUCCUAAGGAGAAGACUGCGGCUUCGAGUCCCGUACGGAACG | 0.528
75 | GUUCCGUUGGCGUAAUGGUAACGUAUCUCUCUCCUAAGGAGAAGAAUGCGGGUUCGAGUCCCGUACGGUACG | 0.611
